Experiment: general procedure: Fmoc solid-phase peptide synthesis; Fmoc-Pal-Peg-PS resin (0.2 mmol/g); DIC/HOBt
[1] = purification step, on 0.5 g crude
[2] = whole synthesis, analytical reversed phase HPLC, UV 220 nm (plus ELSD for conjugates), scale of the general procedure 10 mmol

Ac-AGPTWCEDDWYYCWLFGTGGGK[Ac-VCWEDSWGGEVCFRYDPGGGK(-Adoa-Adoa-Glut-K)-NH2 cyclic (2-12) disulfide]-NH2 cyclic (6-13) disulfide
final HPLC purity (conjugation step, analytical reversed phase HPLC, UV 220 nm (plus ELSD for conjugates)): >95% purity | conjugation yield (conjugation step, from monomer peptides): ∼32% yield | conjugation yield (conjugation step, overall): overall yield 33%

Ac-AGPTWCEDDWYYCWLFGTGGGK[K(ivDde)]-NH2 cyclic (6-13) disulfide
step yield [1]: 20% yield | final HPLC purity [2]: >95% purity | crude mass (whole synthesis, scale 10 mmol): 30 g | crude yield (whole synthesis, scale 10 mmol): 103% of theory

Ac-AGPTWCEDDWYYCWLFGTGGGK{Ac-VCWEDSWGGEVCFRYDPGGGK[-Adoa-Adoa-Glut-K(DSPE-PEG2000-NH-Glut)]-NH2 cyclic (2-12) disulfide}-NH2 cyclic (6-13) disulfide
final HPLC purity (conjugation step, UV 220 nm and ELSD, acetate): >99% (area %) | conjugation yield (conjugation step, acetate): 33.0% | final purity (method not given) (purification step, LSD (ELSD)): 99.3% | final HPLC purity (purification step, UV 220 nm): 99.6% | step yield (purification step, recovery, run 1): about 70% | step yield (purification step, recovery, run 2): 83%

Ac-RAQDWYYDEILSMADQLRHAFLSGGGGGK(DSPE-PEG2000-NH-Glut)-NH2 (SEQ ID NO. 1) (N-acetyl, C-amide, DSPE-PEG2000-NH-Glut lipid conjugate)
conjugation yield (conjugation step): 47% yield | final HPLC purity (conjugation step, UV 220 nm and ELSD): >98% purity

Ac-VCWEDSWGGEVCFRYDPGGGK(Adoa-Adoa)-NH2 cyclic (2-12) disulfide
step yield [1]: 24% yield | final HPLC purity [2]: >95% purity | crude mass (whole synthesis, scale 10 mmol): 28 g
